Out of some 31,000 sequences screened, about 1,400 (4.5%) were called active.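 How the source made its calls: active means median seed-adjusted z-score above 1 or below -1; inactive means the rest.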 The list shows a part of the results.

The assay in a line: Novel Modifiers of Survival Motor Neuron (SMN) Protein: Gene Identification via Genome-wide siRNA Screen.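 Further: luminescence tracks full-length SMN protein made from the SMN2 reporter.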 As to conditions: HEK293T SMN2-luciferase reporter, siRNA knockdown, 72 h; actives lie on both sides. In short, it runs like this:
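siRNA screen, 10418 genes ×3 siRNAs; 1 pmol/well, lipid reverse transfection into HEK293T SMN2-luc reporter line. 72 h, 37 °C, 5% CO2; ONE-Glo readout. Data: neg-ctrl normalized, log10, MAD; hit = MAD >1.0 or < -1.0.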
In general terms: Reporter assays use an easily measured gene product as a stand-in for the process of interest.
CGGGCAUUCUUAUUAGUCATT against SLC2A2: the median seed-adjusted z-score was inactive: -0.498.

With CCUCAUCCCUUAGACUGCATT against ZNF558, the median seed-adjusted z-score is inactive: -0.393.

For the sequence GCGAGACGACGUUUCUGAATT against DBX1, the median seed-adjusted z-score was inactive: 0.0137.

On to GGAGCUACUUUGACUCACUTT against KCNK13, for which the median seed-adjusted z-score was inactive: -0.0924.

GGAUAACAGUGAGUCAAGATT against SUFU: the median seed-adjusted z-score was inactive: -0.263.

As to GGAGUAGGGUGUUUCGAGATT against MKNK1, the median seed-adjusted z-score is inactive: 0.221.

With GCUACUUCAAGGACAGAUATT against NHLRC2, the median seed-adjusted z-score was inactive: 0.548.

As for GAAUGUAAGCGAUGUGGUATT against ZNF136, the median seed-adjusted z-score was inactive: 0.229.

GUAUAUAGAAGGUAUAGCATT against GSTA1: the median seed-adjusted z-score was inactive: 0.27.

GCAGACCUGUGACAUCGAATT against RGS14: the median seed-adjusted z-score is inactive: 0.655.

As to CCUUGAUGUUUCUCAGUUUTT against ZNF433, the median seed-adjusted z-score is inactive: 0.

For GCAACGAACUUCUUAGGAATT against SERAC1, the median seed-adjusted z-score is inactive: -0.0919.

For the sequence CCUGAACGGUUUUGAUGUATT against CDC20, the median seed-adjusted z-score was inactive: 0.191.

As to GAGCUAUGGUUACACGGUUTT against GABRQ, the median seed-adjusted z-score is inactive: -0.54.

In the case of UUACUUUCCUAGUAAGCAATT against GNA12, the median seed-adjusted z-score is inactive: 0.598.

In the case of GGGUUUGACCCACAGCAAATT against ATP1A3, the median seed-adjusted z-score is inactive: 0.329.

GGAUAUAGAGGAUACAGCATT against RFX5: the median seed-adjusted z-score was inactive: 0.432.

With GGAUGAAGAUUGUGCGGGUTT against SGPL1, the median seed-adjusted z-score is inactive: 0.139.

Consider CCAACAUUGUCACCUACAATT against NEK4, for which the median seed-adjusted z-score is inactive: -0.076.

For the sequence GCUGUAGUCUAUUAUAUGATT against SLC1A3, the median seed-adjusted z-score was inactive: -0.421.

In the case of AGAUCUUCGCAAAUACUGUTT against KRT18, the median seed-adjusted z-score is inactive: 0.558.

On to GGCAGUUAGGUAUUCCAUATT against PCDHB5, for which the median seed-adjusted z-score is inactive: 0.

For UGAACAUGCUCAAACCAGATT against GFRA3, the median seed-adjusted z-score was inactive: -0.326.

Turning to CCAUGACAGACGAAGAGAATT against AIP, the median seed-adjusted z-score is inactive: 0.529.

For CUGUCAUUCCUGAAAAGAATT against STAMBP, the median seed-adjusted z-score is inactive: 0.511.

With GAAUAGCAACCACCAAAUATT against PDE11A, the median seed-adjusted z-score is inactive: 0.

Take GCACGUGCUAGAGUACAAUTT against IMP3: the median seed-adjusted z-score is inactive: 0.0239.

For GGCAUUAACAAAUAUAGCATT against KPNA5, the median seed-adjusted z-score was inactive: -0.174.

As for ACUCAGUGGAGGUCACCAATT against EIF3F, the median seed-adjusted z-score is inactive: -0.0214.

With AGAUCUUACAUGUCAUUCATT against KLF8, the median seed-adjusted z-score is inactive: 0.0976.

The values are drawn from PubChem BioAssay AID1347426 (Functional Genomics Laboratory (NCATS/FGL), 2020).
